{
  "source": "patent US8247610B2",
  "about": "“Amine linked modulators of γ-secretase” (Janssen Pharmaceutica N.V., priority 2007, dated 2012)",
  "target": "γ-secretase (Homo sapiens, UniProt P49768)",
  "test": "Screening for γ-secretase-modulating activity in SKNBE2 cells carrying the APP 695 wild type",
  "details": "SKNBE2 cells carrying APP 695 wild type",
  "protocol": "Screening of the Compounds of the Invention for γ-Secretase-Modulating Activity\nScreening was carried out using SKNBE2 cells carrying the APP 695—wild type, grown in DMEM/NUT-mix F12 (HAM) provided by Gibco (cat no. 31330-38) containing 5% Serum/Fe supplemented with 1% non-essential amino acids.\nCells were grown to near confluency.\nThe screening was performed using the assay as described in Citron et al (1997) Nature Medicine 3: 67.",
  "note": "Structures were worked out from names or drawings and are uncertain.",
  "data": [
    {"smiles": "CC(C)CC(C(=O)O)c1cc(-c2ccc(C(F)(F)F)cc2)cc(N(CC(C)C)c2ccc(Cl)cn2)c1", "note": "(stereo not shown)", "values": [
      {"measurement": "EC50", "value": 210, "unit": "nM"}
    ]}
  ]
}
